Primary screen of a compound library

Data taken from ChEMBL document CHEMBL3988442, “University of Dundee, Small-Polar-MMV Screening Library” (2021).

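Whole-cell assay for inhibitors of Mycobacterium tuberculosis growth, labelled Cornell in the record; the read-out is not stated. The concentration is filed as 10 mM, unlikely as a test dose, so the dose is not known. The record gives no direction; compounds strong in two other growth screens of this library score well above the rest, so higher reads as stronger inhibition. Size under these conditions: about 53,000 compounds, about 900 of them at 50% or above in at least one test.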

Results are given as percent effect.
The record does not define 0% and 100%; most values in the screen are far below 50% and negative numbers occur (in some assays of this library far below -100).
This is an unselected part of the compounds tested.

For Cc1ccc(NC(=O)N2CCCC(O)C2)c(Br)c1 (centres unmarked) the result was -9.333%.
For Cc1ccc(C)c(C(=O)NC2CCC(N3C(=O)CCC3=O)CC2)c1 (centres unmarked) the result was 5.459%.
For OC(CN(Cc1ccccc1)Cc1ccon1)c1cccs1 (centres unmarked) the result was 6.668%.
For Cc1nn(C)c(=O)c2nn(-c3ccc(Cl)cc3)c(C)c12 the result was 27.32%.
For CCS(=O)(=O)N1CCc2ccc(NC(=O)NCc3ccccc3)cc21 the result was 42.78%.
For CC(C)c1nnsc1CNC(=O)C1CCCN(C(=O)N(C)C)C1 (centres unmarked) the result was -0.8929%.
For CC(C(=O)NCc1ccc(N2CCNC(=O)C2)cc1)n1cncn1 (centres unmarked) the result was -72.66%.
For Cc1nc(-c2ccccc2)n(CC(=O)NC(C)C2CC2)n1 (centres unmarked) the result was 10.71%.
For CC1CCN(CCNC(=O)c2ccccc2N2CCOCC2)CC1 the result was 27.34%.
For Cc1noc(C(C)C)c1C(=O)NCc1cc(F)cc(F)c1 the result was 6.325%.
For COc1ccc2c(c1)OCC(Cc1cnc(N)c(C)c1)C2 (centres unmarked) the result was -3.247%.
For O=C(O)C(F)(F)F.[H][C@@]12COC[C@H](C(=O)N3CCOCC3)[C@]1([H])CN(CC1CCCC1)C2 the result was 28.29%.
For O=C(C(CNCc1cccs1)c1ccccc1)N1CCOCC1 (centres unmarked) the result was 0.3954%.
For OC(COCc1cccs1)Cn1cc(Br)cn1 (centres unmarked) the result was 23.38%.
For Cc1cc(CNC(=O)c2ccno2)c(C)o1 the result was -6.894%.
For Cn1cc(C2CC(=O)NC23CCN(C(=O)C2CC=CC2)CC3)cn1 (centres unmarked) the result was 7.573%.
For CC(c1cccc(-c2nccn2CCc2cn[nH]c2)c1)N(C)C (centres unmarked) the result was -25.3%.
For CCn1cc(C(=O)NCC(OC)c2cccc(Cl)c2)cn1 (centres unmarked) the result was -16.97%.
For O=C(O)C(F)(F)F.[H][C@@]12CCN(Cc3ccoc3)[C@]1([H])CC[C@@H](C(=O)N1CCCC1)O2 the result was 25.69%.
For Cl.O=c1c2sccc2nc2n1CCN(Cc1ccc(F)c(F)c1)CC2 the result was 6.288%.
For Cc1cc(SC(C)(C)C)ccc1NC(C)C(=O)NC(N)=O (centres unmarked) the result was -21.74%.
For Cc1cc(=O)[nH]c(-n2nc(C)c(CCC(=O)NCc3cccs3)c2C)n1 the result was 13.95%.
For O=C(Cc1ccc(F)cc1)N1CCn2c(Cn3cncn3)cnc2C1 the result was 5.614%.
For CS(=O)(=O)Cc1cccc(C(=O)NCC2Cc3ccccc3O2)c1 (centres unmarked) the result was 15.46%.
For CC(=O)N1CCN(CCNS(=O)(=O)c2c(F)cccc2F)CC1 the result was 27.15%.
For CCc1nnc(CNC(=O)CCCN2CCCCC2)s1 the result was 25.07%.
For Cl.Nc1ncc(-c2csc(NC(=O)C[C@H]3COCCN3)n2)cn1 the result was 7.966%.
For CCCn1ccnc1CN1CCCC(O)(CN2CCCC2)C1 (centres unmarked) the result was -31.04%.
For Cc1cccc(OC2CCN(C(=O)CNC(=O)N(C)C)CC2)c1 the result was -3.475%.
For Cc1cn2c(n1)CCC(NC(=O)CNS(C)(=O)=O)C2 (centres unmarked) the result was -12.28%.
For CCCn1nccc1-c1cnc(CC2CCN(C(C)=O)C2)cn1 (centres unmarked) the result was 18.06%.
For CCc1ccc(C(=O)NC[C@H]2CCCN2C(=O)c2ccc(CC)o2)o1 the result was -6.118%.
For CNC(=O)CN(C)c1nc(-c2ccncc2)nc2c1CCN(C(C)=O)C2 the result was 15.21%.
For CCc1ccc(CN2CCN(C)C3(CCC(=O)N(CC4CC4)CC3)C2)o1 (centres unmarked) the result was 10.57%.

Some entries from above, unchanged:

| compound | effect |
|---|---|
| `Cc1noc(C(C)C)c1C(=O)NCc1cc(F)cc(F)c1` | 6.325 |
| `Cc1cc(SC(C)(C)C)ccc1NC(C)C(=O)NC(N)=O` (centres unmarked) | -21.74 |